Assay results from the supplement of paper PMC10849652.
This is one part of the list.

The chains behind the UniProt entries cited, without tags or fusion partners. Where a name states a change or a piece, a line headed by the entry shows the natural chain unless it says otherwise.
UniProt Q8NEZ5: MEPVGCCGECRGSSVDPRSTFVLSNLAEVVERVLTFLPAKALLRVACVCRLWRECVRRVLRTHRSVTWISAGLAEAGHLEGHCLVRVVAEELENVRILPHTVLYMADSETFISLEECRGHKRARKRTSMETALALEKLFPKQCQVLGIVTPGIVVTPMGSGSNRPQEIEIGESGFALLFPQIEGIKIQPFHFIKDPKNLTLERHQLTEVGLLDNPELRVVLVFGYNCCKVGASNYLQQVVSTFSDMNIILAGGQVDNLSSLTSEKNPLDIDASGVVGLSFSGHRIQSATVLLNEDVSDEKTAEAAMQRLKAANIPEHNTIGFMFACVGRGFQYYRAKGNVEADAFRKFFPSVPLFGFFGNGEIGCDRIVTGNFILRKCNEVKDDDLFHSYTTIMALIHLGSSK
UniProt Q96AC1: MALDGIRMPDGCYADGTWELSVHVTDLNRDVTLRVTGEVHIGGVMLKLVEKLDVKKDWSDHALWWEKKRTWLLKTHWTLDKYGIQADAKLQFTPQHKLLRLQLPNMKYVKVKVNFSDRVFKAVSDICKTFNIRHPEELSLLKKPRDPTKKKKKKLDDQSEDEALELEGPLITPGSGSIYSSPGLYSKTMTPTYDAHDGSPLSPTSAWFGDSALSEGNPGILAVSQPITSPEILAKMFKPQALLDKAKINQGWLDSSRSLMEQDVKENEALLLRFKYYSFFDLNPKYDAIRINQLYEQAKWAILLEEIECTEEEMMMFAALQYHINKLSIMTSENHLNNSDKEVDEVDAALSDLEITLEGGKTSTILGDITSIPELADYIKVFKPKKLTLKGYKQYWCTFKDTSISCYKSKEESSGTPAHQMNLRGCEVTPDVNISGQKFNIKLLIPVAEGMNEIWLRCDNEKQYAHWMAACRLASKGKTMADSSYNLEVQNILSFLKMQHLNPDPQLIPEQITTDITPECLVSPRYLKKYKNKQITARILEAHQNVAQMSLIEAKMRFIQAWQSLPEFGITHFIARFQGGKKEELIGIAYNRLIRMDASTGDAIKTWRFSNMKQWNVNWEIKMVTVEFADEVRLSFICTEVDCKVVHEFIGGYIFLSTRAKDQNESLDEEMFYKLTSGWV
UniProt Q9H479: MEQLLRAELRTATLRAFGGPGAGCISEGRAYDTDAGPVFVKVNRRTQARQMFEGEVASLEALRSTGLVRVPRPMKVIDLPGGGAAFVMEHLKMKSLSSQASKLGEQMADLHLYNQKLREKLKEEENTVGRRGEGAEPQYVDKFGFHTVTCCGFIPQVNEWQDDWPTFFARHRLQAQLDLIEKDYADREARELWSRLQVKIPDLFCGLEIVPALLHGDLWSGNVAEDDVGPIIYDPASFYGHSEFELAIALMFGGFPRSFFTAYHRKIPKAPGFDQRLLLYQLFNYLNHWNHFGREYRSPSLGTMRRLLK
UniProt Q9UK73, whole entry, looked up: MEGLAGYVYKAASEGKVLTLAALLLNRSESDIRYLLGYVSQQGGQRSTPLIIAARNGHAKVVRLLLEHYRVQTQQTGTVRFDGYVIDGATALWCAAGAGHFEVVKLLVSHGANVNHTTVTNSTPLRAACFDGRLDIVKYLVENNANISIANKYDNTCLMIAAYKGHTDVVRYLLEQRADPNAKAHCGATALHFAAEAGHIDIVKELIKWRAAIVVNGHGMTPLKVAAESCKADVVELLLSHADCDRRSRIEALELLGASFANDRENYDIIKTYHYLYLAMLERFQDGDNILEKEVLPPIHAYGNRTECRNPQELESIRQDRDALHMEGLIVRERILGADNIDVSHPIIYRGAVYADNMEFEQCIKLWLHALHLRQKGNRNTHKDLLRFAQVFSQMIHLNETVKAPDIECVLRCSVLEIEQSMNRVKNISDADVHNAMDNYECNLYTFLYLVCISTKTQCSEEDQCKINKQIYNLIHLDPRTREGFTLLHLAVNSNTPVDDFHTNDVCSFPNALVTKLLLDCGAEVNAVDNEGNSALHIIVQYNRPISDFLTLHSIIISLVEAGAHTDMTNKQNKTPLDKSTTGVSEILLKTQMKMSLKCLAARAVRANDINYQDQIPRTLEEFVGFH
UniProt Q96CP2: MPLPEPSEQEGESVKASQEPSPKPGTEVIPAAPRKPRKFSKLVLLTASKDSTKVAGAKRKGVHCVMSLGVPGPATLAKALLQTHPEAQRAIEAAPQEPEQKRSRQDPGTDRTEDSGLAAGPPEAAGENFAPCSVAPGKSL
UniProt Q52LJ0: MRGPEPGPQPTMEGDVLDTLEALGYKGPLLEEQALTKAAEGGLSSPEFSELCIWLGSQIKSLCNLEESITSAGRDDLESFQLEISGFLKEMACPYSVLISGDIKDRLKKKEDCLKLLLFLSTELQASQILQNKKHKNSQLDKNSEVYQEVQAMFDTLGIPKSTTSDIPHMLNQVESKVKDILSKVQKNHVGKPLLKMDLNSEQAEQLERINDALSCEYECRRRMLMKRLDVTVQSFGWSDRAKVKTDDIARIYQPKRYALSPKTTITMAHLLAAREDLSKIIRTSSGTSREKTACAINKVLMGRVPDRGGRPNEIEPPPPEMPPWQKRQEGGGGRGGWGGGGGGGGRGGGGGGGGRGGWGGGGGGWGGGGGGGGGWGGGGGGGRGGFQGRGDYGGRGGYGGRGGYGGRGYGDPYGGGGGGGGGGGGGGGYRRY
UniProt Q9UKT4: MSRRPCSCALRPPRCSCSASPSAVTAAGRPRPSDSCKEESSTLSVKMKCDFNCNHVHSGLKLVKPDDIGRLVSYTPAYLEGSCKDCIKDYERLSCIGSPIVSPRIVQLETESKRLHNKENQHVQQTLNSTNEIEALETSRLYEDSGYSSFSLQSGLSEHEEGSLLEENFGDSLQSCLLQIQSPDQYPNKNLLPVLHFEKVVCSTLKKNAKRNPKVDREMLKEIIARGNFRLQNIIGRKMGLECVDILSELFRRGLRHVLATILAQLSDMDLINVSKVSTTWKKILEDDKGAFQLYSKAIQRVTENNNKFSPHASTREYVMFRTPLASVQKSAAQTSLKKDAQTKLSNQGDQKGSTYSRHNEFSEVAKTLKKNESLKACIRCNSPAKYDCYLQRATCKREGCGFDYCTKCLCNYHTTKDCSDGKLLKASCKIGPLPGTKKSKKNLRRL
UniProt Q8NFF5: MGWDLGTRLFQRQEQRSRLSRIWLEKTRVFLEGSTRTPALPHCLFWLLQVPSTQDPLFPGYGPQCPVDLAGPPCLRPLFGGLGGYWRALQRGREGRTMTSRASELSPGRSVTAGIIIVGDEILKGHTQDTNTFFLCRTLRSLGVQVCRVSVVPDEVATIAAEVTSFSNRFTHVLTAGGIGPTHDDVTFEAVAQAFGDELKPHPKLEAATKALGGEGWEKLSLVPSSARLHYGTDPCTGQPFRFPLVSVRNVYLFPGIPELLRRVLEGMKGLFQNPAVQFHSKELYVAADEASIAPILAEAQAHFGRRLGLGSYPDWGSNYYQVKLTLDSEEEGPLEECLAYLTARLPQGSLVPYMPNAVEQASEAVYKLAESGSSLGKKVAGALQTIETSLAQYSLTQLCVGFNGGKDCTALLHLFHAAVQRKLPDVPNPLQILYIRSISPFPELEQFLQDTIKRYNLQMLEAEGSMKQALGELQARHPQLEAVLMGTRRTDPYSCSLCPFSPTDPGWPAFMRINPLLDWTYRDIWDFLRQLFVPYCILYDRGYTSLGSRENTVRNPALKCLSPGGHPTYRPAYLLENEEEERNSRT
UniProt Q13045: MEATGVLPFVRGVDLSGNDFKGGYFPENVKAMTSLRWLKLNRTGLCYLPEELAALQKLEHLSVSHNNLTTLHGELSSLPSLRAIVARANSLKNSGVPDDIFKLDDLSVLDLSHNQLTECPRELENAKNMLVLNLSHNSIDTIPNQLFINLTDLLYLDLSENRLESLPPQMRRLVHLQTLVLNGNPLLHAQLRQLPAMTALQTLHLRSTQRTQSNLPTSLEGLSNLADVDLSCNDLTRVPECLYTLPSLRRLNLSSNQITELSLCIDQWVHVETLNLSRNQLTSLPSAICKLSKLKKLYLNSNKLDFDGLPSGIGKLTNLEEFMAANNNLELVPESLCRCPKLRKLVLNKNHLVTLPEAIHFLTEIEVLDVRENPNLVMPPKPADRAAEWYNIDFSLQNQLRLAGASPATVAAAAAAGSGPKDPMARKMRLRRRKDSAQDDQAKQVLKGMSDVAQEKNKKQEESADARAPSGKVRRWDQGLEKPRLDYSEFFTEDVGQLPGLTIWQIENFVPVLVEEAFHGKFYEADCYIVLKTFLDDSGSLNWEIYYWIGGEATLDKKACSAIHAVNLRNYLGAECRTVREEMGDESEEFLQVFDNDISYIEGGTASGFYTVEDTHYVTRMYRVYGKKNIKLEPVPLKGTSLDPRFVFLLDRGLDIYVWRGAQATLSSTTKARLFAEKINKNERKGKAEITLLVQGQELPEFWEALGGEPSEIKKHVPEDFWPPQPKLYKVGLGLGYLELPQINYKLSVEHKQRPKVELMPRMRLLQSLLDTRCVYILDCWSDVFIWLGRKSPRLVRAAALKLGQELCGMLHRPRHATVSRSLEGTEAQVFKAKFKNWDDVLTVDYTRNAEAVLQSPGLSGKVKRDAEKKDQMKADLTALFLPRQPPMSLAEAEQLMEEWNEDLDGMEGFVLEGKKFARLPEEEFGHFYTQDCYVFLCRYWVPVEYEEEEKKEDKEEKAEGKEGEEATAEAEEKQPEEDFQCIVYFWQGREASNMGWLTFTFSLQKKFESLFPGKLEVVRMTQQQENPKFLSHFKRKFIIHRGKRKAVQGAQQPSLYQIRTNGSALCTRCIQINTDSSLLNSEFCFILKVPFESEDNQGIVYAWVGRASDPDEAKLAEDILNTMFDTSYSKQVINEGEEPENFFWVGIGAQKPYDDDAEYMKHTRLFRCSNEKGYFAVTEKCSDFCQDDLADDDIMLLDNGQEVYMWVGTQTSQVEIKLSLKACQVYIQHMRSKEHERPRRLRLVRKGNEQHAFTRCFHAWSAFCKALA
UniProt P31995: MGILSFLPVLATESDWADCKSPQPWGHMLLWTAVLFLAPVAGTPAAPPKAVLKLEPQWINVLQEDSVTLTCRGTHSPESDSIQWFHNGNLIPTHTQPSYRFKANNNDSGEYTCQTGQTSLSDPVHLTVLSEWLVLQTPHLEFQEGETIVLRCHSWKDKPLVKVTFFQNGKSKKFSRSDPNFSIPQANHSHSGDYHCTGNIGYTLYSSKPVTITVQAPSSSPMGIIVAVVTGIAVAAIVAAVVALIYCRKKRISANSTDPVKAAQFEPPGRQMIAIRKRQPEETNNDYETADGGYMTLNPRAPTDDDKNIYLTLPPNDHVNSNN
UniProt Q13451: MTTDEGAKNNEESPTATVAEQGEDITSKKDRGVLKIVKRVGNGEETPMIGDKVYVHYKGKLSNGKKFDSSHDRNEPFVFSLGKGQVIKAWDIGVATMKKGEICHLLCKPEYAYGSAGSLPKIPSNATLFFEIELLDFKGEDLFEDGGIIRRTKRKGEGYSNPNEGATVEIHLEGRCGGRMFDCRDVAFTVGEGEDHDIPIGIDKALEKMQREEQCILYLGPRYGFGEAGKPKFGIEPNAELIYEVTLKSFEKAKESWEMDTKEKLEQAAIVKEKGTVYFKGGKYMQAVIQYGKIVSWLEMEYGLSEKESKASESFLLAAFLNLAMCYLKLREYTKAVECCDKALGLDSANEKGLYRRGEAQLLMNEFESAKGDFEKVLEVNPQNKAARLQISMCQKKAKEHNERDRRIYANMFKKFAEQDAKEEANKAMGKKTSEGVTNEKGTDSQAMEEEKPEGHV
UniProt Q14192: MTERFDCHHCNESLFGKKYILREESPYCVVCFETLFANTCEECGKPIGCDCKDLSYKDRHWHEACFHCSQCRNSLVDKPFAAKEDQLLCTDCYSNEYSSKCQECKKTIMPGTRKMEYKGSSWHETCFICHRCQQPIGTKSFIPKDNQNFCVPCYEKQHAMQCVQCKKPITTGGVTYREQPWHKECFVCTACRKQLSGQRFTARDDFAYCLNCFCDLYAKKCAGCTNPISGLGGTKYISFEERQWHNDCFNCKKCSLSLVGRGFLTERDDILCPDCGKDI
UniProt Q9Y421: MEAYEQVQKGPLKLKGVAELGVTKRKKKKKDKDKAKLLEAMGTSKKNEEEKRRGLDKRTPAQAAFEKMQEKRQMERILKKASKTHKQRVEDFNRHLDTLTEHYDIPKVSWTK
UniProt Q8WVX9: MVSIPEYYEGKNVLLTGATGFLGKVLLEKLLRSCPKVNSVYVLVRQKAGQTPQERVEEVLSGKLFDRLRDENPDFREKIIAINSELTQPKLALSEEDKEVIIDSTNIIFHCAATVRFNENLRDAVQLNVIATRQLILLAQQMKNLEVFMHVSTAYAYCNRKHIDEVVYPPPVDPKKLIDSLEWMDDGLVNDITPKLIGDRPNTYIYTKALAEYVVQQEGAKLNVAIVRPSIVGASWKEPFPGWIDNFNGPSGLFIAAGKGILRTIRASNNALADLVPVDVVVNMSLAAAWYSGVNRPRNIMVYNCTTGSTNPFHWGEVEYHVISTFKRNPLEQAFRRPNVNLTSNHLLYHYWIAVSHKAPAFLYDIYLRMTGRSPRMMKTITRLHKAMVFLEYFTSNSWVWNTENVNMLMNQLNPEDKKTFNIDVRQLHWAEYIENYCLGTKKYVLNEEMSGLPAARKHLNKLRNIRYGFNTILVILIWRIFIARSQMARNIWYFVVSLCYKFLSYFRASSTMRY

Each target was assayed with Cc1ccc(C(=O)N(CCCN)[C@@H](c2nc3cc(Cl)ccc3c(=O)n2Cc2ccccc2)C(C)C)cc1 [ispinesib] (assay: log2 fold change, soluble protein after heating vs DMSO (PISA); higher = thermal stabilisation; K562 cells, 10 uM, 30 min; active = over 0.2 and 3.5 SD of the protein, either way, in both replicates (recomputed)).
Summary of the method: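 K562 cells (2×10^6 cells/mL) were treated with 10 μM compound for 30 min, and aliquots were heated for 3 min over 48°C-58°C. Pooled aliquots were extracted in PBS with 0.5% NP-40 at 4°C, and the supernatant after 21,000xg for 90 min was measured by TMTpro 16plex LC-MS/MS with channel sums equalised. Reported thermal stability, relative to control samples and from duplicates, is a log2 fold change.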

Row | Target | log2 fold change
1 | FBXO22 (UniProt Q8NEZ5) | inactive: 0.044
2 | FNBP4 isoform 2 (UniProt Q8N3X1) | inactive: 0.014
3 | FGFR1OP (UniProt O95684) | inactive: -0.084
4 | FCSK isoform 2 (UniProt Q8N0W3) | inactive: 0.033
5 | FAM76B (UniProt Q5HYJ3) | inactive: 0.17
6 | FLVCR1 (UniProt Q9Y5Y0) | inactive: -0.003
7 | FAM98A (UniProt Q8NCA5) | inactive: -0.015
8 | FERMT2 isoform 3 (UniProt Q96AC1) | inactive: 0.006
9 | FN3K (UniProt Q9H479) | inactive: 0.045
10 | FEM1B (UniProt Q9UK73) | inactive: 0.076
11 | FN1 isoform 1 (UniProt P02751) | inactive: -0.008
12 | FN3KRP (UniProt Q9HA64) | inactive: 0.063
13 | FIP1L1 (UniProt Q6UN15) | inactive: -0.022
14 | FLYWCH2 (UniProt Q96CP2) | inactive: -0.021
15 | FDX1 (UniProt P10109) | inactive: 0.15
16 | FLOT2 (UniProt Q14254) | inactive: -0.027
17 | FAM98B (UniProt Q52LJ0) | inactive: 0.037
18 | FLOT1 (UniProt O75955) | inactive: -0.225
19 | FBXO5 (UniProt Q9UKT4) | inactive: -0.005

Nos. 10–11 of the list above:
Row | Target | log2 fold change
10 | FEM1B (UniProt Q9UK73) | inactive: 0.076
11 | FN1 isoform 1 (UniProt P02751) | inactive: -0.008

The results go on.

Row | Target | log2 fold change
20 | FLT4 (UniProt P35916) | inactive: -0.102
21 | FLAD1 (UniProt Q8NFF5) | inactive: -0.024
22 | FLII (UniProt Q13045) | inactive: 0.027
23 | FLNB isoform 8 (UniProt O75369) | inactive: 0.079
24 | FLNC (UniProt Q14315) | inactive: 0.049
25 | FCGR2C (UniProt P31995) | inactive: 0.094
26 | FKBP5 (UniProt Q13451) | inactive: -0.131
27 | FKBP2 (UniProt P26885) | inactive: 0.036
28 | FHL2 (UniProt Q14192) | inactive: 0.053
29 | FAM210A (UniProt Q96ND0) | inactive: 0.025
30 | FAM32A (UniProt Q9Y421) | inactive: -0.05
31 | FARSB (UniProt Q9NSD9) | inactive: -0.032
32 | FAM78A (UniProt Q5JUQ0) | inactive: -0.05
33 | FKBP9 (UniProt O95302) | inactive: -0.015
34 | FAR1 (UniProt Q8WVX9) | inactive: -0.161
35 | FBXO30 (UniProt Q8TB52) | inactive: 0.017
36 | FKBP15 (UniProt Q5T1M5) | inactive: -0.106
37 | FBLN1 (UniProt P23142) | inactive: -0.096
